Some of the results follow.
Key:
Assay in all cases: log2 fold change, soluble protein after heating vs DMSO (PISA); higher = thermal stabilisation; K562 lysate, 10 uM; active = over 0.2 and 3.5 SD of the protein, either way, in both replicates (recomputed)
vemurafenib = compound: CCCS(=O)(=O)Nc1ccc(F)c(C(=O)c2c[nH]c3ncc(-c4ccc(Cl)cc4)cc23)c1F [vemurafenib]
How it was run: (§1)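 K562 pellets were dounce-homogenised in PBS pH 7.4 with 1 mM MgCl2, and the crude extract at 1 mg/mL protein was treated with 10 μM compound for 30 min. Aliquots were heated for 3 min across 48°C-58°C, pooled, and brought to 0.5% NP-40 at 4°C; soluble protein was the supernatant after 21,000xg for 90 min. Soluble protein was quantified by TMTpro 16plex LC-MS/MS with channel sums equalised, and reported as log2 fold change in thermal stability against DMSO controls, with values from duplicates.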

Protein sequences, listed by entry. Tags and fused reporters are not part of them. Lines headed by an entry give the natural chain unless they say otherwise; changes in a name come on top.
UniProt A2RTX5: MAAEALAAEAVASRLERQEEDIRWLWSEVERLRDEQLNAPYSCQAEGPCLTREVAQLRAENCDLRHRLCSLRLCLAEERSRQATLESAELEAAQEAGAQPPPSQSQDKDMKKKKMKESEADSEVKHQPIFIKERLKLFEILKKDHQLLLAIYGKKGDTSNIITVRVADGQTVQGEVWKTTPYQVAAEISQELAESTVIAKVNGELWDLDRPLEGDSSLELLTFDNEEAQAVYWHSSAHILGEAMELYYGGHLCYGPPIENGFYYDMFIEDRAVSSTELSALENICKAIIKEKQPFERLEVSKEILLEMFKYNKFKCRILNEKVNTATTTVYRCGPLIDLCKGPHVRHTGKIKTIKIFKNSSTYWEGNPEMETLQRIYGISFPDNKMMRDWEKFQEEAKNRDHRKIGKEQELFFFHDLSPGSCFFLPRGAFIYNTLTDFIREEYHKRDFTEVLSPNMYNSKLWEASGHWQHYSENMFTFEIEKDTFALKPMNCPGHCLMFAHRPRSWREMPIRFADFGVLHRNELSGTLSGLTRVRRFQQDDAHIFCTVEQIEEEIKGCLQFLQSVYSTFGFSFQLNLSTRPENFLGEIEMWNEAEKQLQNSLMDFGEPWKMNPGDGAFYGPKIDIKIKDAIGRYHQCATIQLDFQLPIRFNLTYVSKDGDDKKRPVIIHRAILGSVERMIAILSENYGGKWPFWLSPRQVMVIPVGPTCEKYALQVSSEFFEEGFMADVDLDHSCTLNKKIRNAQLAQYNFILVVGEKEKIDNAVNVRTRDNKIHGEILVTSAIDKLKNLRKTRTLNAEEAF
UniProt Q86VP1, whole entry, looked up: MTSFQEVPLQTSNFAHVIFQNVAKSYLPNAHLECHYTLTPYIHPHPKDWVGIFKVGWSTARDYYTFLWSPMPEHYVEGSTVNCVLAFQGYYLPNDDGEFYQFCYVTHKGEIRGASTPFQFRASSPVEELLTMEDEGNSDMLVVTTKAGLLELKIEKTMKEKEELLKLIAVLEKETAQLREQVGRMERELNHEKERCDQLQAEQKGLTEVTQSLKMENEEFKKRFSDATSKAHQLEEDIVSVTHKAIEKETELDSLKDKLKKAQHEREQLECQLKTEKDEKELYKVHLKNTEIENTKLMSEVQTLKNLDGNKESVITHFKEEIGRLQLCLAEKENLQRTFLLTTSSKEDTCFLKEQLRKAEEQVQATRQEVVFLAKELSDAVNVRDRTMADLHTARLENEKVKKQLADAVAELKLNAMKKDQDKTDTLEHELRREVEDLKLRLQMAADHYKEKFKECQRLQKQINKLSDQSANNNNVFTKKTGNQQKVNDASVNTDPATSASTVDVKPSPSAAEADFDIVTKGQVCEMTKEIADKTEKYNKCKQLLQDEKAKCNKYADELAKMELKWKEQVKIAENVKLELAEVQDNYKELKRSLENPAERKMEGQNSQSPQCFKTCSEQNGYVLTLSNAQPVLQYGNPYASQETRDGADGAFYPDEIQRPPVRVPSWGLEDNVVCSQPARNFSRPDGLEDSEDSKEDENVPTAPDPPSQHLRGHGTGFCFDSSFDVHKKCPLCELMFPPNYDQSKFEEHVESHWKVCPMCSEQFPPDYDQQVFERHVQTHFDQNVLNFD
UniProt Q9Y4R8, whole entry, looked up: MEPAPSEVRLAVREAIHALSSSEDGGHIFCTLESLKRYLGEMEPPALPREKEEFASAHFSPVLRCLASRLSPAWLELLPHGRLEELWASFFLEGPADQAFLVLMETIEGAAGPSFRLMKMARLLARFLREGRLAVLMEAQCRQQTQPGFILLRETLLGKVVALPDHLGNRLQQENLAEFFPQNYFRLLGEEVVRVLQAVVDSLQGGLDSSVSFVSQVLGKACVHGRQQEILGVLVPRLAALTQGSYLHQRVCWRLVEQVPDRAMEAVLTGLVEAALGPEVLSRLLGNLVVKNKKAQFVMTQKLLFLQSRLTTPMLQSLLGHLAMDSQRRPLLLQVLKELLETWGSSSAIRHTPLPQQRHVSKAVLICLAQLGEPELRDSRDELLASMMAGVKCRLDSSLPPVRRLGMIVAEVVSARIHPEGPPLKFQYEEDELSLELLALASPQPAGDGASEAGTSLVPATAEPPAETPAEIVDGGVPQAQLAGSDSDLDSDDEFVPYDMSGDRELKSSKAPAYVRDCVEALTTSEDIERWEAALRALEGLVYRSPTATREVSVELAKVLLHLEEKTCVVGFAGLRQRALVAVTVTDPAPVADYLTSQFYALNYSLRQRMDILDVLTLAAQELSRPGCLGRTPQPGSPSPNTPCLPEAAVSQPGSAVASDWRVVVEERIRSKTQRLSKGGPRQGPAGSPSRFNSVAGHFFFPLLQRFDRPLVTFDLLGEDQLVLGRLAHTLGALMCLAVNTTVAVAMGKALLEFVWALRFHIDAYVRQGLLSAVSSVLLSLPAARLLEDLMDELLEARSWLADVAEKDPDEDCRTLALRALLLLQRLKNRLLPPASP
UniProt Q13488, whole entry, looked up: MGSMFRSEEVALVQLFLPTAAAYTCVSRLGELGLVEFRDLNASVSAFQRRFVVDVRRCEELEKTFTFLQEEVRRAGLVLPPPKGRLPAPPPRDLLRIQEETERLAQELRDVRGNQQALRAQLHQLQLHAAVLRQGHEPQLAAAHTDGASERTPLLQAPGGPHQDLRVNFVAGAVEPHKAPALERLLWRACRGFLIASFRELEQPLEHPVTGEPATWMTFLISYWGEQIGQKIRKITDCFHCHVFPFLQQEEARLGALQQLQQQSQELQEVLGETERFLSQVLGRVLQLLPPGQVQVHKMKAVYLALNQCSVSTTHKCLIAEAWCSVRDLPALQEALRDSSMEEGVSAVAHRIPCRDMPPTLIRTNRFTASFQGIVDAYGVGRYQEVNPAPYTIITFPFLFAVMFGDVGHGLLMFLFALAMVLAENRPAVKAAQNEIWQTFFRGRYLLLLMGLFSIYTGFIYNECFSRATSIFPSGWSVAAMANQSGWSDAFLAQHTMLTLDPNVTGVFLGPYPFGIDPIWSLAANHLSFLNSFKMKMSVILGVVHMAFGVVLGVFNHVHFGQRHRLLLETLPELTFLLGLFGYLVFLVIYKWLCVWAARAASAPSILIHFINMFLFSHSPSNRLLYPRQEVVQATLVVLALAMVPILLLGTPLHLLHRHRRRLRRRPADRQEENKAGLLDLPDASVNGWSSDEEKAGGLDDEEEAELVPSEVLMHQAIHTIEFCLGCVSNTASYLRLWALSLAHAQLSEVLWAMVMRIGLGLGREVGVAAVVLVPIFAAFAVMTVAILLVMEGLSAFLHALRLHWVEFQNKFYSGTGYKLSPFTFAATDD
UniProt Q99426: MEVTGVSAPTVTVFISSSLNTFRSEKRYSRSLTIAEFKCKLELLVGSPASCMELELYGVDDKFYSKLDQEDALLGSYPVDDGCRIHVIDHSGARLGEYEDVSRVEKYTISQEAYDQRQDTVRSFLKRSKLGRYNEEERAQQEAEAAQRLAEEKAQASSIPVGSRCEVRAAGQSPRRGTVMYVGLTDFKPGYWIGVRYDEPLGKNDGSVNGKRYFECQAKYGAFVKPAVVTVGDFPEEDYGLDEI
UniProt Q96EI5: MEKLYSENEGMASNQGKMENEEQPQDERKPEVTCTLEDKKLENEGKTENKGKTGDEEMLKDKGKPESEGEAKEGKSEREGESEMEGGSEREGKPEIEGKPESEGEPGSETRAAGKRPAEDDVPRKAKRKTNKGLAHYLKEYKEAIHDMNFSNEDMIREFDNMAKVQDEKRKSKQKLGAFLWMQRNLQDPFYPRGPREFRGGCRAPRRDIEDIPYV
UniProt Q3MII6: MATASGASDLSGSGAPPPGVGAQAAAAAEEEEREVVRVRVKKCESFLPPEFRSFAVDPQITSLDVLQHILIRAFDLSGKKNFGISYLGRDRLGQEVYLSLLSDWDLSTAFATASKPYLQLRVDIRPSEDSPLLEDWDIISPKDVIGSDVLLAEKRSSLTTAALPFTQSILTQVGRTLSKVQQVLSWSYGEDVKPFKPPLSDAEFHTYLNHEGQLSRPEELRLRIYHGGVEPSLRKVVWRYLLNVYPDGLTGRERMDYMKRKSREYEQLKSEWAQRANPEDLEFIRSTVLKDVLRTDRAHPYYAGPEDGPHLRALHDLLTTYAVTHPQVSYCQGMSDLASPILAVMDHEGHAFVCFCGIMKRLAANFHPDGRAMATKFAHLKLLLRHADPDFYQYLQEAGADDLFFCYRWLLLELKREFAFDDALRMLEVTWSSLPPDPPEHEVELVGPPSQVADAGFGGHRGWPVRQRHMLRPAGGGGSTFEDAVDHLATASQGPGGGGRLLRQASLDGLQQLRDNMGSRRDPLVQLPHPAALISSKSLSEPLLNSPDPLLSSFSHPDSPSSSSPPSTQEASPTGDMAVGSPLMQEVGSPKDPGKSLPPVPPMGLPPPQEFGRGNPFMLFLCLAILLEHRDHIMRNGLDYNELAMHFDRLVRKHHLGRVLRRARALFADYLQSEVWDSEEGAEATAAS
UniProt P42680: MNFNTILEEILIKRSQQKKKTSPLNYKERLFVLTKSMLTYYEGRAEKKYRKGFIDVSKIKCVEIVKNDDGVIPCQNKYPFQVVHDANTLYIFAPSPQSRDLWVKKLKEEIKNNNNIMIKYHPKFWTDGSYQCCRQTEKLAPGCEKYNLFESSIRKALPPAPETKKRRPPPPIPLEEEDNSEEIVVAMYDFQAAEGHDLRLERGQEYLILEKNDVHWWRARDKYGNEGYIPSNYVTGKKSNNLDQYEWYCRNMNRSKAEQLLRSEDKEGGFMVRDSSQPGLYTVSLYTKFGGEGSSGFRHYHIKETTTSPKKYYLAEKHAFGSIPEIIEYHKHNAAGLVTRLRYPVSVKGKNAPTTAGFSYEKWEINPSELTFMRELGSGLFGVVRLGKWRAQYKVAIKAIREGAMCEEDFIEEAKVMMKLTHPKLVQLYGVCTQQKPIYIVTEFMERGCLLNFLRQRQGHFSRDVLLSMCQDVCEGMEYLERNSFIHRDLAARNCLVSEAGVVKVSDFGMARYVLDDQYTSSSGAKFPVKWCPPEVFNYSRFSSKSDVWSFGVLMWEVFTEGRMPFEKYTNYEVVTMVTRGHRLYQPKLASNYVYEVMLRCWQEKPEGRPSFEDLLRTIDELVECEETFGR
UniProt Q8N4U5: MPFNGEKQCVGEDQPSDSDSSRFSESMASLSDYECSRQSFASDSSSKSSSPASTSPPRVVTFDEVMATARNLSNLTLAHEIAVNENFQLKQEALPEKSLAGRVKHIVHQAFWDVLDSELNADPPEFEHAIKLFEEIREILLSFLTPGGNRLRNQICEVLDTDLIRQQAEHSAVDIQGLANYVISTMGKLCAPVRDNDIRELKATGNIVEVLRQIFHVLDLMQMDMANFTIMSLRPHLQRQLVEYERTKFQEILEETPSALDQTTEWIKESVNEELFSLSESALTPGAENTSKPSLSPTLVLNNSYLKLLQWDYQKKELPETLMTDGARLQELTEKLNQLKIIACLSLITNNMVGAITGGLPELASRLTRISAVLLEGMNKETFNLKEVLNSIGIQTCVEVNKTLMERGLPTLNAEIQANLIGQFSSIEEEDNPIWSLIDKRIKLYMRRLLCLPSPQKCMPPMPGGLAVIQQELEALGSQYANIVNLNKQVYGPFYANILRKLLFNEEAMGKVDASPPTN
UniProt Q13569: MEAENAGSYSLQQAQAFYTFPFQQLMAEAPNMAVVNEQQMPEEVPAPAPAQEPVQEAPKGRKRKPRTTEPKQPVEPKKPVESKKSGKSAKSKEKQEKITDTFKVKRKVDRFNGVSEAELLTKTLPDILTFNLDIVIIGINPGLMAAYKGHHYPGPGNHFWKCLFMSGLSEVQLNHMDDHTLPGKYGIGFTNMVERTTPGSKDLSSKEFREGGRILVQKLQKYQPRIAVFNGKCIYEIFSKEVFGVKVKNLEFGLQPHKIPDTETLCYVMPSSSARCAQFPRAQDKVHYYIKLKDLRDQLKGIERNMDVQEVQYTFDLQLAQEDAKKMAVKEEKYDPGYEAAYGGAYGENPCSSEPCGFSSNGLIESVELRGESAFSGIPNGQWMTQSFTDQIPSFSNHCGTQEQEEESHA
UniProt Q15562, whole entry, looked up: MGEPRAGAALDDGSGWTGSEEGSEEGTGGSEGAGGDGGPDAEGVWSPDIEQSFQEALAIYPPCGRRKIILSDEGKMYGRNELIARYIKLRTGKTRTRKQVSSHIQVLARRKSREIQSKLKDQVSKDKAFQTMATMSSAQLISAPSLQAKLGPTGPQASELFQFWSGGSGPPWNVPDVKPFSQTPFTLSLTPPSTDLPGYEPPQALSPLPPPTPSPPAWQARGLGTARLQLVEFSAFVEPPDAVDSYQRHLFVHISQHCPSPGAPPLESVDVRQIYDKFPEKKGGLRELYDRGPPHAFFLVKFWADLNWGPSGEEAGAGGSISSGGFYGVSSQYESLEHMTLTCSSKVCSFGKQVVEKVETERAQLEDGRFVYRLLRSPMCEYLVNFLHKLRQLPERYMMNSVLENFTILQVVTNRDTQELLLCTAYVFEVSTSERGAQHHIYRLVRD
UniProt Q8IYN2: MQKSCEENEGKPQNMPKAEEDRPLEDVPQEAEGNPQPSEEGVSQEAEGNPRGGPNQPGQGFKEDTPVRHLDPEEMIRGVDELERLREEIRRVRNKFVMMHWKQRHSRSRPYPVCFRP

[1] = compound: CCCS(=O)(=O)Nc1ccc(F)c(C(=O)c2c[nH]c3ncc(Cl)cc23)c1F
How it was run: as §1

barasertib = compound: CCN(CCCOc1ccc2c(Nc3cc(CC(=O)Nc4cccc(F)c4)[nH]n3)ncnc2c1)CCOP(=O)(O)O [barasertib]
How it was run: as §1

[2] = compound: CC[C@@H]1C(=O)N(C)c2cnc(Nc3ccc(C(=O)NC4CCN(C)CC4)cc3OC)nc2N1C1CCCC1
How it was run: as §1

volasertib = compound: CC[C@@H]1C(=O)N(C)c2cnc(Nc3ccc(C(=O)N[C@H]4CC[C@H](N5CCN(CC6CC6)CC5)CC4)cc3OC)nc2N1C(C)C [volasertib]
How it was run: as §1

[3] = compound: CCn1c(C(=O)N(C2CC2)C2CC2)cc2c3c(ncn3C)c(Nc3cc(C)n(C)n3)nc21
How it was run: as §1

[4] = compound: CCn1cc(-c2ccnc3[nH]c(-c4cccc(CN(C)C)c4)cc23)c(-c2ccc(NC(=O)N(C)C)cc2)n1
How it was run: as §1

[5] = compound: CN1CCC(CNc2ccc3ncc(-c4cccc(OC(F)(F)F)c4)n3n2)CC1
How it was run: as §1

saracatinib = compound: CN1CCN(CCOc2cc(OC3CCOCC3)c3c(Nc4c(Cl)ccc5c4OCO5)ncnc3c2)CC1 [saracatinib]
How it was run: as §1

sotrastaurin = compound: CN1CCN(c2nc(C3=C(c4c[nH]c5ccccc45)C(=O)NC3=O)c3ccccc3n2)CC1 [sotrastaurin]
How it was run: as §1

Measured: log2 fold change

TARSL2 (UniProt A2RTX5)
inactive: vemurafenib -0.006 | [1] -0.007 | barasertib 0.006 | [2] -0.015 | volasertib -0.03 | [3] -0.055 | [4] -0.083 | [5] 0.035 | saracatinib 0.033 | sotrastaurin -0.005

TFIP11 (UniProt Q9UBB9)
inactive: vemurafenib 0.017 | [1] 0.025 | barasertib -0.09 | [2] -0.018 | volasertib -0.059 | [3] 0.048 | [4] -0.027 | [5] -0.037 | saracatinib 0.018 | sotrastaurin 0.027

TARDBP (UniProt Q13148)
inactive: vemurafenib 0.027 | [1] 0.016 | barasertib 0.151 | [2] 0.007 | volasertib -0.125 | [3] 0.169 | [4] -0.008 | [5] -0.069 | saracatinib 0.058 | sotrastaurin -0.032

TAX1BP1 (UniProt Q86VP1)
inactive: vemurafenib 0.028 | [1] 0.006 | barasertib 0.041 | [2] 0.05 | volasertib 0.001 | [3] -0.005 | [4] -0.009 | [5] -0.004 | saracatinib 0.01 | sotrastaurin 0.023

TELO2 (UniProt Q9Y4R8)
inactive: vemurafenib 0.063 | [1] 0 | barasertib 0.088 | [2] -0.073 | volasertib -0.071 | [3] 0.048 | [4] -0.017 | [5] -0.043 | saracatinib 0 | sotrastaurin 0.037

TBCD (UniProt Q9BTW9)
inactive: vemurafenib 0.017 | [1] 0.013 | barasertib 0.013 | [2] -0.076 | volasertib -0.028 | [3] 0.004 | [4] -0.089 | [5] 0.027 | saracatinib 0.009 | sotrastaurin 0.001

TBPL1 (UniProt P62380)
inactive: vemurafenib -0.02 | [1] 0.008 | barasertib -0.013 | [2] -0.01 | volasertib -0.036 | [3] -0.082 | [4] -0.076 | [5] 0.08 | saracatinib -0.067 | sotrastaurin 0.019

TCIRG1 (UniProt Q13488)
inactive: vemurafenib -0.004 | [1] -0.045 | barasertib 0.071 | [2] -0.059 | volasertib 0.041 | [3] 0.088 | [4] -0.027 | [5] 0.048 | saracatinib 0.087 | sotrastaurin 0.02

TBCB (UniProt Q99426)
inactive: vemurafenib -0.014 | [1] -0.012 | barasertib -0.059 | [2] 0.012 | volasertib 0.012 | [3] -0.001 | [4] -0.101 | [5] 0.046 | saracatinib -0.003 | sotrastaurin -0.002

TARBP1 (UniProt Q13395)
inactive: vemurafenib 0.019 | [1] -0.004 | barasertib 0.02 | [2] 0.025 | volasertib -0.032 | [3] -0.047 | [4] -0.053 | [5] -0.034 | saracatinib -0.055 | sotrastaurin 0.038

Reprinted from the entries so far (two entries):
TCIRG1 (UniProt Q13488)
inactive: vemurafenib -0.004 | [1] -0.045 | barasertib 0.071 | [2] -0.059 | volasertib 0.041 | [3] 0.088 | [4] -0.027 | [5] 0.048 | saracatinib 0.087 | sotrastaurin 0.02

TBCB (UniProt Q99426)
inactive: vemurafenib -0.014 | [1] -0.012 | barasertib -0.059 | [2] 0.012 | volasertib 0.012 | [3] -0.001 | [4] -0.101 | [5] 0.046 | saracatinib -0.003 | sotrastaurin -0.002

(listing goes on)

TCEAL4 isoform 2 (UniProt Q96EI5)
inactive: vemurafenib 0.006 | [1] -0.014 | barasertib -0.13 | [2] 0.141 | volasertib 0.01 | [4] -0.189 | [5] 0.014 | saracatinib 0.057 | sotrastaurin -0.023

TBC1D12 (UniProt O60347)
inactive: vemurafenib -0.047 | [1] 0.045 | [2] -0.086 | volasertib 0.014 | [3] -0.031 | [4] -0.04 | [5] 0.012 | saracatinib -0.052 | sotrastaurin -0.062

TDRD15 (UniProt B5MCY1)
inactive: vemurafenib 0.143 | [1] 0.06 | [2] 0.055 | volasertib -0.182 | [3] -0.044 | saracatinib -0.011 | sotrastaurin -0.034

TBC1D25 (UniProt Q3MII6)
inactive: vemurafenib 0.04 | [1] -0.019 | [2] -0.079 | volasertib 0.187 | [3] 0.009 | [4] 0.199 | [5] -0.005 | saracatinib -0.011 | sotrastaurin 0.241

TC2N (UniProt Q8N9U0)
inactive: vemurafenib 0.187 | [2] 0.207 | [4] -0.11 | [5] 0.021

TCEANC2 (UniProt Q96MN5)
inactive: vemurafenib 0.11 | barasertib 0.036 | [2] 0.004 | [3] -0.05 | saracatinib -0.02

TEC (UniProt P42680)
inactive: vemurafenib -0.081 | [1] -0.119 | [2] -0.054 | volasertib 0.14

TCF3 (UniProt X6REB3)
inactive: vemurafenib 0.075 | [4] 0 | [5] 0.128

TBX1 isoform 3 (UniProt O43435)
inactive: vemurafenib 0.011 | barasertib -0.018 | [2] 0.141 | [4] -0.277 | [5] 0.158

TBCK (UniProt Q8TEA7)
inactive: [1] -0.042 | barasertib 0.005 | [2] 0.013 | volasertib -0.107 | [3] -0.199 | [4] 0.518 | [5] 0.051 | saracatinib -0.097 | sotrastaurin 0.048

TFPI isoform 2 (UniProt P10646)
inactive: vemurafenib 0 | sotrastaurin -0.011

TCP11L2 (UniProt Q8N4U5)
inactive: vemurafenib -0.164 | [2] 0.055 | [3] 0.034 | [4] -0.14 | [5] 0.131

TCEAL9 (UniProt Q9UHQ7)
inactive: vemurafenib 0.165 | sotrastaurin 0.06

TATDN1 isoform 2 (UniProt Q6P1N9)
inactive: vemurafenib 0.186 | [1] -0.134 | barasertib -0.032 | volasertib 0.074 | [3] -0.165 | sotrastaurin 0.022

TESMIN (UniProt Q9Y4I5)
inactive: vemurafenib -0.195 | [2] 0.133 | [3] 0.034 | [4] -0.282 | [5] 0 | saracatinib -0.041 | sotrastaurin -0.02

TDG (UniProt Q13569)
inactive: vemurafenib 0.005 | barasertib 0.012 | [2] 0.132 | [3] 0.143 | [4] -0.02 | [5] -0.014 | saracatinib 0.002 | sotrastaurin -0.015

TCEAL1 isoform 2 (UniProt Q15170)
inactive: vemurafenib -0.002 | [1] -0.013 | barasertib 0.156 | volasertib 0.057

TEAD2 isoform 4 (UniProt Q15562)
inactive: vemurafenib 0.158 | saracatinib 0.04

TFEB (UniProt P19484)
inactive: vemurafenib 0.009 | sotrastaurin 0.091

TFDP2 (UniProt Q14188)
inactive: vemurafenib -0.319 | [1] -0.063 | barasertib 0.128 | volasertib -0.032 | [3] -0.057 | saracatinib 0.141 | sotrastaurin 0.034

TCEAL8 (UniProt Q8IYN2)
inactive: vemurafenib 0.044 | [2] 0.073 | saracatinib -0.02 | sotrastaurin -0.018

TERF1 (UniProt P54274)
inactive: vemurafenib -0.032 | [2] -0.166 | sotrastaurin 0.035

TARDBP (UniProt K7EN94)
inactive: vemurafenib 0.008 | [2] -0.039

— the supplement of paper PMC10849652
